# No constants are given. Whether binding was seen depends on the method and setting. In cells and extracts the contact can be indirect.
# Amino acid sequences for entries named in this document (tags omitted).
# UniProt P19474: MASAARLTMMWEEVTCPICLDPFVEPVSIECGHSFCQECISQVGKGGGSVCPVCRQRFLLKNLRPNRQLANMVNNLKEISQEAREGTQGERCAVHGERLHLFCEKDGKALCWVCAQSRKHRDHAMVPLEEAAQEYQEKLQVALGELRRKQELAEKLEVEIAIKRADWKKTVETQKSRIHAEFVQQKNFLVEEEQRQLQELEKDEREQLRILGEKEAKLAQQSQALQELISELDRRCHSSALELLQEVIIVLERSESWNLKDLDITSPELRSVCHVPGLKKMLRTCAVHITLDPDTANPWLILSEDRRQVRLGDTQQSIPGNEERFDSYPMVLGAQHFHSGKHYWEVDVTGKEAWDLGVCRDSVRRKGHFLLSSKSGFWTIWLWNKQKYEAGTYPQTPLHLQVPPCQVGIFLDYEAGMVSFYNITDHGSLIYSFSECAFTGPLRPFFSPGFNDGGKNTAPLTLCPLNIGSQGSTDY
# Legend:
# [1] = target: M1 protein of PR8 virus (in infected cells) (influenza A virus A/Puerto Rico/8/34 (PR8)) (UniProt P03485); assay: co-IP
# [2] = target: Flag-GST-tagged PR8 M1 (influenza A virus A/Puerto Rico/8/34 (PR8)) (UniProt P03485); assay: co-IP
Substance,binding [1],binding [2]
"TRIM21 (endogenous, A549 cells) (from UniProt P19474 1-475) (enzyme)",no binding,
Myc-tagged TRIM21 (tripartite motif-containing protein 21) (from UniProt P19474 1-475) (enzyme),,no binding

# Source: PMC10325077
